# Assay results: PubChem BioAssay AID504834 (National Center for Advancing Translational Sciences (NCATS), 2011)
# Screen size: about 320,000 compounds; about 22,000 (6.9%) were called active. The shares of active, inactive and inconclusive entries below differ from those in the screen. The call rests on the fitted dose curve; in most records, active means well fitted inhibition curve with a large enough effect; inconclusive means small, poorly fitted or top-dose-only effect, or another doubt; inactive means no such curve, though single readings can be large or run the other way. Potencies beside an inconclusive call are fits to weak or partial responses and may not hold up.
# Assay: Primary qHTS for delayed death inhibitors of the malarial parasite plastid, 96 hour incubation
# Conditions: P. falciparum luciferase reporter growth; series mostly up to 28.7 µM
# Summary of the method: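 Cell-based qHTS: luciferase-tagged P. falciparum in erythrocytes (2% hematocrit, 0.05% parasitemia final) incubated with compounds for 96 hours, 37 C, 5% CO2; luciferase detection reagent then added and luminescence measured.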
# Potency means the concentration at half of the fitted maximal effect.
row,Compound,Potency
1,COC(=O)C1=C(C)N(Cc2ccccc2)C(=NCC(C)C)N[C@H]1c1ccc(Br)cc1,inactive
2,COc1ccc(C)cc1NC(=O)C1CCCN1C(=O)OCc1ccccc1 (stereo not given),"inconclusive: 0.0465 µM [inhibitor, full curve]"
3,S=C1NCN(C2CCCCC2)CN1CCc1ccccc1,active: 1.85 µM
4,Cc1cc(C)nc(NC(=O)c2cc(-c3ccc4c(c3)OCO4)nc3ccccc23)c1,"inconclusive: 18.5 µM [inhibitor, single point]"
5,COc1ccccc1OCC(=O)NC1CCCCCC1,"inconclusive: 18.5 µM [inhibitor, single point]"
6,C=CCn1cc(CN2CCC(C(=O)Nc3cccc(-c4cccc(Cl)c4)c3)CC2)c(C)n1,inactive
7,S=c1[nH]c(-c2ccccc2)cn1/N=C/c1ccccc1Br,"inconclusive: 11.7 µM [inhibitor, single point]"
8,Cc1ccc(S(=O)(=O)c2nc(-c3cccs3)oc2NCc2cccnc2)cc1,active: 11.7 µM
9,O=C(Nc1ccc(Cn2ccnc2)cc1)c1cccc(C(F)(F)F)c1,"inconclusive: 16.5 µM [inhibitor, single point]"
10,CCN(CC)CCN1C(=O)c2oc3ccccc3c(=O)c2C1c1cccc(Br)c1 (stereo not given),active: 0.928 µM
11,Cn1c(SCc2c(F)cccc2Cl)nnc1-c1cccs1,"inconclusive: 16.5 µM [inhibitor, single point]"
12,C=C1CCc2c([nH]c3ccc(OCC(C)C)cc23)C1=O,inactive
13,O=C(Nc1ccc(C(F)(F)F)cc1)c1csc(-c2ccncc2)n1,"inconclusive: 7.38 µM [inhibitor, partial curve, poor fit]"
14,Cc1ccc(-c2nnc3sc(C4COc5ccccc5O4)nn23)cc1 (stereo not given),inactive
15,O=C(N/C(=C/c1cn(-c2ccccc2)nc1-c1ccccc1)C(=O)N1CCOCC1)c1ccc(Cl)cc1Cl,"inconclusive: 2.33 µM [inhibitor, full curve]"
16,CCOC(=O)c1sc2cccc(F)c2c1N,"inconclusive: 1.85 µM [inhibitor, full curve, poor fit]"
17,CC(C)CN1C2CCCC1CC(NC(=O)c1ccc([N+](=O)[O-])cc1)C2 (stereo not given),"inconclusive: 18.5 µM [inhibitor, single point]"
18,Cc1c(NC(=O)c2cc(-c3ccc4c(c3)OCO4)on2)c(=O)n(-c2ccccc2)n1C,"inconclusive: 0.0033 µM [inhibitor, full curve, poor fit]"
19,O=S(=O)(NCC(O)c1ccccc1)c1ccc(-c2ccccn2)s1 (stereo not given),inactive
20,C#C[C@]1(O)CC[C@H]2[C@@H]3CCC4=CC(=O)CC[C@]4(C)[C@H]3CC[C@@]21C,"inconclusive: 2.94 µM [inhibitor, partial curve, poor fit]"
21,C=C(C)CSc1nc2sc3c(c2c(=O)n1-c1ccc(OC)cc1)CCN(C)C3,active: 1.04 µM
22,Cc1ccc(-n2nc3c(=O)n(C(C)C(=O)NC4CC4)nc(C)c3c2C)cc1 (stereo not given),"inconclusive: 11.7 µM [inhibitor, partial curve, poor fit]"
23,CCCCNc1nnc(CCn2nc(C)c(Br)c2C)s1,"inconclusive: 16.5 µM [inhibitor, single point]"

row,Compound,Potency
1,Clc1ccc(/C=N/NC2=Nc3cccc4cccc2c34)cc1,inactive
2,COc1ccc(C2CC(c3ccccc3)=NN2c2ccc(C(N)=O)cc2)cc1 (stereo not given),"inconclusive: 11.7 µM [inhibitor, single point]"
3,[Hg+][c]1ccccc1,active: 3.38 µM
4,CC(C)Cn1c(N)c(C(=O)COC(=O)c2ccccc2Cl)c(=O)n(C)c1=O,"inconclusive: 11.7 µM [inhibitor, single point]"
5,COc1cc(NC(=O)C(Cc2ccccc2)n2cccc2)cc(OC)c1 (stereo not given),"inconclusive: 10.4 µM [inhibitor, partial curve]"
6,Cc1ccc(S(=O)(=O)CCc2nnc(NC(=O)CCl)s2)cc1C,inactive
7,COc1ccc(OCC(O)CNS(=O)(=O)c2ccc(NC(C)=O)cc2)cc1 (stereo not given),"inconclusive: 0.928 µM [inhibitor, full curve]"
8,CCc1nc(N2CCCC(C)C2)c2oc3ccccc3c2n1 (stereo not given),"inconclusive: 13.1 µM [inhibitor, single point]"
9,O=C1CCC(c2ccc3c(c2)CCC3)=NN1,inactive
10,CCCCC(=O)NNC(=S)NC(=O)c1ccc(C)cc1,"inconclusive: 14.7 µM [inhibitor, single point]"
11,CN(CC(=O)NNC(=O)CCNS(=O)(=O)c1ccccc1)S(=O)(=O)c1ccc(Cl)cc1,inactive
12,COc1ccc(NS(=O)(=O)c2ccc(C)c(C(=O)N(C)CCc3ccc(OC)c(OC)c3)c2)cc1,"inconclusive: 18.5 µM [inhibitor, partial curve, poor fit]"
13,O=C(Nc1ccccc1F)NC1CCN(Cc2nnnn2Cc2ccc(F)cc2)CC1,"inconclusive: 18.5 µM [inhibitor, single point]"
14,C=CCNc1nc2ccccc2c(=O)[nH]1,"inconclusive: 2.94 µM [inhibitor, full curve, poor fit]"
15,COCCN(C(=O)CSc1nnc(-c2cccc(OC)c2)n1C)c1c(N)n(Cc2ccccc2)c(=O)[nH]c1=O,inactive
16,O=C(N/N=C/c1ccccc1O)c1cc(=O)[nH]c2ccccc12,inactive
17,COc1cc(C2Nc3cc(C)c(C)cc3NC3=C2C(=O)CC(C)(C)C3)ccc1OC(C)=O (stereo not given),"inconclusive: 13.1 µM [inhibitor, single point]"
18,C=CCSc1nnc(NC(=O)c2cccc(S(=O)(=O)N(C)c3ccccc3)c2)s1,inactive
19,O=C(Cn1c(=O)oc2ccccc21)NCc1ccco1,"inconclusive: 10.4 µM [inhibitor, single point]"
20,CC(C)(C)C1CCc2c(sc(NC(=O)CSc3nnc(-c4ccccc4)o3)c2C#N)C1 (stereo not given),"inconclusive: 10.4 µM [inhibitor, partial curve, poor fit]"
21,CCc1sc(NC(=O)c2cc3ccccc3oc2=O)nc1-c1cccs1,"inconclusive: 9.28 µM [inhibitor, partial curve, poor fit]"
22,CN(C)c1oc(-c2ccccc2Cl)nc1P(=O)(c1ccccc1)c1ccccc1,active: 11.7 µM

# Quoted at random: 3 records from the list
row,Compound,Potency
20,CC(C)(C)C1CCc2c(sc(NC(=O)CSc3nnc(-c4ccccc4)o3)c2C#N)C1 (stereo not given),"inconclusive: 10.4 µM [inhibitor, partial curve, poor fit]"
18,C=CCSc1nnc(NC(=O)c2cccc(S(=O)(=O)N(C)c3ccccc3)c2)s1,inactive
15,COCCN(C(=O)CSc1nnc(-c2cccc(OC)c2)n1C)c1c(N)n(Cc2ccccc2)c(=O)[nH]c1=O,inactive
